For at least one compound, name, drawing or mass did not settle the structure.
System: GSCs (387, 3565, 4121)
Test: Sphere formation assay
Type: cell-based, human
Settings: three GSC models, MOI of 5, TMZ 250 μM, one week

`Cn1nnc2c(C(N)=O)ncn2c1=O` [TMZ, Temozolomide] was tested, and the “anti-GSC activity by sphere formation” value was “limited effect against GSCs”.
